In PMC6076257:
These are yes or no findings as the source states them, for the method shown. Binding seen in cells or lysates may run through a third protein. Some binding calls cover weakened binding; strength is not graded here. Tags and fused reporters may be left off the sequences shown.

Amino acid sequences for entries named in this document (tags omitted).
UniProt P51114: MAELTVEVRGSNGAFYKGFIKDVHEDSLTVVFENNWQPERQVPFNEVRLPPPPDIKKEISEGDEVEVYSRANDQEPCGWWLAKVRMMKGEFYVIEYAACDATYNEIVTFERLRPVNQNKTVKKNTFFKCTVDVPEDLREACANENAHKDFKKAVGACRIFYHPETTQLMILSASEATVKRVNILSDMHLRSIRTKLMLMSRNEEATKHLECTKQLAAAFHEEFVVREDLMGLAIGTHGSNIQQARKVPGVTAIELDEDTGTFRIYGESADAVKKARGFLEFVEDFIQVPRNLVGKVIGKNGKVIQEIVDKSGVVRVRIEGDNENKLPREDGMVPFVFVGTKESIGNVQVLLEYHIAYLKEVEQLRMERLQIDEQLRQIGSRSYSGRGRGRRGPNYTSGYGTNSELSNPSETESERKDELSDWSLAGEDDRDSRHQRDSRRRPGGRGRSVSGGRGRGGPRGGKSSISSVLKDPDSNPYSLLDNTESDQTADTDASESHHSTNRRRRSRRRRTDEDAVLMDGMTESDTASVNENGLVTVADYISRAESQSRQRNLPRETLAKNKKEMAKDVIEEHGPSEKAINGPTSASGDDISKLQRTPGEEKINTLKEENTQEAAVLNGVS
UniProt P51116: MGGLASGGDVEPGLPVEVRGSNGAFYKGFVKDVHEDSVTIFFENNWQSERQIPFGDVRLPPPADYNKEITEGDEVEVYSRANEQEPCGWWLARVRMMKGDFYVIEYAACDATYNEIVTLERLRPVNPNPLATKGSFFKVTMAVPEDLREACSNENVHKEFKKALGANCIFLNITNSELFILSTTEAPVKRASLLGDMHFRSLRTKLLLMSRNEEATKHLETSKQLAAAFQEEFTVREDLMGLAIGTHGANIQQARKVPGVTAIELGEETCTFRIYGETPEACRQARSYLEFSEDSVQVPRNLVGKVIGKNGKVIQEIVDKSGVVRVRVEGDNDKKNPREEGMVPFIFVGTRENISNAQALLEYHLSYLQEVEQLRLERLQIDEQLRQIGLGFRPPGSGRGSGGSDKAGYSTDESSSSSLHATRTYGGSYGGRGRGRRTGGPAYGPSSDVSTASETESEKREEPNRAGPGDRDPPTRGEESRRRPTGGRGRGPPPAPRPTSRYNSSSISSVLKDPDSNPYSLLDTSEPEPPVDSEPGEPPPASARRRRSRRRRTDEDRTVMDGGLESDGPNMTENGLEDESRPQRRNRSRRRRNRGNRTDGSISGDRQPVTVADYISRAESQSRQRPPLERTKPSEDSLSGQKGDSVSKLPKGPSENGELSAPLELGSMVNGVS
UniProt O15371: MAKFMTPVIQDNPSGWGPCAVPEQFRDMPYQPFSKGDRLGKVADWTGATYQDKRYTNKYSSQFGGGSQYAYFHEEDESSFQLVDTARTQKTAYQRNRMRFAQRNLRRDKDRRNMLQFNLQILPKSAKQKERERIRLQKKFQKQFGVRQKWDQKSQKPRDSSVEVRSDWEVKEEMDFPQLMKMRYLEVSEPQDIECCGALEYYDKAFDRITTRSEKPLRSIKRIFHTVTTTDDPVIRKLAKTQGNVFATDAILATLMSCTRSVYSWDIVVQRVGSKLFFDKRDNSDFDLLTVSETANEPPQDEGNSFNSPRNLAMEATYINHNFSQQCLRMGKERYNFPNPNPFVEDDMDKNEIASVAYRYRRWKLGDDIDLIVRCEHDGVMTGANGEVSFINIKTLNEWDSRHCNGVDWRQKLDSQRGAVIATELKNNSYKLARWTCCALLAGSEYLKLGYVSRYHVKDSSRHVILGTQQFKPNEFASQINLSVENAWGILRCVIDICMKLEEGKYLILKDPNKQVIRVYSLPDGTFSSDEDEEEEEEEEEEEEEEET

Experiments:
HA-DAP5 [1] = target: T1, HA-DAP5 (UniProt P78344); experiment: co-IP; IP of HA-DAP5, HA-eIF4GI or HA-eIF4GII from transfected MDA-MB-231 lysate (50 mM TrisHCl pH 7.5, 150 mM NaCl, 0.5% NP-40, Benzonase, RNase A), immunoblot of interacting proteins
T1 sequence: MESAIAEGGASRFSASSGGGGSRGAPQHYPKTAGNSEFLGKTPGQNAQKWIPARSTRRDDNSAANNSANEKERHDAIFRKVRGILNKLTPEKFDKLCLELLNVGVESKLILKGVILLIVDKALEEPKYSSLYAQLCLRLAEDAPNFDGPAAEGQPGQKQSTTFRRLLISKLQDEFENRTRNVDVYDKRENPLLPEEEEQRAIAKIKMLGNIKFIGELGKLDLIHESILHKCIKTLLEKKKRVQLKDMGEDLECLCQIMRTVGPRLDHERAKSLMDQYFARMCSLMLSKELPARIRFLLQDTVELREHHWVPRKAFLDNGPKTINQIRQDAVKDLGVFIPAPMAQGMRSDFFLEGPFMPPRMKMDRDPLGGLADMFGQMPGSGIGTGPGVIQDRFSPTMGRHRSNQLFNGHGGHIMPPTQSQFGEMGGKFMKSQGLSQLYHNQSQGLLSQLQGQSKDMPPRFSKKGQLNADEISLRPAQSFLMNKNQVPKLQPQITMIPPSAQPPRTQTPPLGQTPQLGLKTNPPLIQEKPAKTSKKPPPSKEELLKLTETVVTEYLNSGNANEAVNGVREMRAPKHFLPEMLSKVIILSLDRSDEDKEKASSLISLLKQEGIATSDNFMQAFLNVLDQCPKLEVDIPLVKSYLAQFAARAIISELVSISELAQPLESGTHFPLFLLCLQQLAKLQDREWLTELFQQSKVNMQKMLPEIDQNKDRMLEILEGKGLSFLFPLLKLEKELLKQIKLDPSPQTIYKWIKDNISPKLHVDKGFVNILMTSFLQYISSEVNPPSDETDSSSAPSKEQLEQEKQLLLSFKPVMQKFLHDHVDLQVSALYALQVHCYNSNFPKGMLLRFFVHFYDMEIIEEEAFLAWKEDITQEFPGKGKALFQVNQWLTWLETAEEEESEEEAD

HA-DAP5 [2] = target: T1, HA-DAP5; experiment: cross-linking; live cells incubated with 0.6 mM BS3 for 30 min at room temperature, quenched with Tris, then lysis, IP of HA-DAP5 and immunoblot (anti-DAP5, then anti-eIF3d) on SDS-denaturing gel

binding (HA-DAP5 [1])	binding (HA-DAP5 [2])	Substance
binds		FXR1 (from UniProt P51114 1-621)
binds		FXR2 (from UniProt P51116 1-673)
binds	binds	eIF3d (from UniProt O15371 1-548)
